These results are taken from publication PMC10111703.

Chains of the proteins cited; added tags and fusions are not shown.
UniProt Q14694: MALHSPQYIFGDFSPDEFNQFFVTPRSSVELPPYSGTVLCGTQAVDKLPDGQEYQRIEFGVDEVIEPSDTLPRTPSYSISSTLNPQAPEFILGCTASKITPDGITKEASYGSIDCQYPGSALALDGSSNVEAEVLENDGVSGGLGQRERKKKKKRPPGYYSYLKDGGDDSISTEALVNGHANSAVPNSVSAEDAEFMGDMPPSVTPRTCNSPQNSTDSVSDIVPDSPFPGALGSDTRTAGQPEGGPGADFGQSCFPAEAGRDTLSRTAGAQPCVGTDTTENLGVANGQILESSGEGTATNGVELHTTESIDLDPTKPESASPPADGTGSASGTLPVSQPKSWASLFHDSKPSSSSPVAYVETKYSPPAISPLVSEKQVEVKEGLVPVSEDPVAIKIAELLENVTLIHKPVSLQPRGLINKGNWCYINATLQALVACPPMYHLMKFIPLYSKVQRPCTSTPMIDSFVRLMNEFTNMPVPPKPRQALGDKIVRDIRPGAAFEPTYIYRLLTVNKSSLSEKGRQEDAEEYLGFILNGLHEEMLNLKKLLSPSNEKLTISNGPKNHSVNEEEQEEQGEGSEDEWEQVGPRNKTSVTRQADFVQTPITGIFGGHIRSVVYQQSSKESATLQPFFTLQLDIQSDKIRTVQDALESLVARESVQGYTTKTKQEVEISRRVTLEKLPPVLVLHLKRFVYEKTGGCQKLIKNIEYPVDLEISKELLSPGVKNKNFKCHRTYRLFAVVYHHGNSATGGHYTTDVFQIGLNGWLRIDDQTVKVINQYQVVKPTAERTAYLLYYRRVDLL

Results are given in words; binding and its absence hold for the method and conditions named. Binding seen in cells or lysates may run through a third protein. Some results given as binding are weak or reduced against the parent protein; the word gives no strength.

The target of the assay is USP10 (human (endogenous in HGC-27 and MGC80-3)) (UniProt Q14694). Description: co-IP; endogenous proteins in HGC-27 or MGC80-3 cells; precipitation with DDX21 and, in turn, with USP10, read by Western blot; also done in stably LINC00240-KD (less USP10 with DDX21) and LINC00240-OE (more USP10 with DDX21) cells. In general terms: A western blot detects proteins with antibodies after separation by electrophoresis.

B1: DDX21 (protein, UniProt Q9NR30-1 1-783)
chain: MPGKLRSDAGLESDTAMKKGETLRKQTEEKEKKEKPKSDKTEEIAEEEETVFPKAKQVKKKAEPSEVDMNSPKSKKAKKKEEPSQNDISPKTKSLRKKKEPIEKKVVSSKTKKVTKNEEPSEEEIDAPKPKKMKKEKEMNGETREKSPKLKNGFPHPEPDCNPSEAASEESNSEIEQEIPVEQKEGAFSNFPISEETIKLLKGRGVTFLFPIQAKTFHHVYSGKDLIAQARTGTGKTFSFAIPLIEKLHGELQDRKRGRAPQVLVLAPTRELANQVSKDFSDITKKLSVACFYGGTPYGGQFERMRNGIDILVGTPGRIKDHIQNGKLDLTKLKHVVLDEVDQMLDMGFADQVEEILSVAYKKDSEDNPQTLLFSATCPHWVFNVAKKYMKSTYEQVDLIGKKTQKTAITVEHLAIKCHWTQRAAVIGDVIRVYSGHQGRTIIFCETKKEAQELSQNSAIKQDAQSLHGDIPQKQREITLKGFRNGSFGVLVATNVAARGLDIPEVDLVIQSSPPKDVESYIHRSGRTGRAGRTGVCICFYQHKEEYQLVQVEQKAGIKFKRIGVPSATEIIKASSKDAIRLLDSVPPTAISHFKQSAEKLIEEKGAVEALAAALAHISGATSVDQRSLINSNVGFVTMILQCSIEMPNISYAWKELKEQLGEEIDSKVKGMVFLKGKLGVCFDVPTASVTEIQEKWHDSRRWQLSVATEQPELEGPREGYGGFRGQREGSRGFRGQRDGNRRFRGQREGSRGPRGQRSGGGNKSNRSQNKGQKRSFSKAFGQ
For B1, the binding entry is on record as “binds”.
